In patent EP4663661A1 (Hainan Simcere Zaiming Pharmaceutical Co., Ltd., dated 2025):
These are yes or no findings as the source states them, for the method shown. Some entries that bind do so weakly or less than the wild type. For some assays here: Tags and fused reporters may be left off the sequences shown.

What was measured:
[1] = target: T1, his-tagged human CDH6 extracellular region protein (hCDH6 ECD-his) (human) (UniProt P55285); assay: ELISA, antigen coated
T1 sequence: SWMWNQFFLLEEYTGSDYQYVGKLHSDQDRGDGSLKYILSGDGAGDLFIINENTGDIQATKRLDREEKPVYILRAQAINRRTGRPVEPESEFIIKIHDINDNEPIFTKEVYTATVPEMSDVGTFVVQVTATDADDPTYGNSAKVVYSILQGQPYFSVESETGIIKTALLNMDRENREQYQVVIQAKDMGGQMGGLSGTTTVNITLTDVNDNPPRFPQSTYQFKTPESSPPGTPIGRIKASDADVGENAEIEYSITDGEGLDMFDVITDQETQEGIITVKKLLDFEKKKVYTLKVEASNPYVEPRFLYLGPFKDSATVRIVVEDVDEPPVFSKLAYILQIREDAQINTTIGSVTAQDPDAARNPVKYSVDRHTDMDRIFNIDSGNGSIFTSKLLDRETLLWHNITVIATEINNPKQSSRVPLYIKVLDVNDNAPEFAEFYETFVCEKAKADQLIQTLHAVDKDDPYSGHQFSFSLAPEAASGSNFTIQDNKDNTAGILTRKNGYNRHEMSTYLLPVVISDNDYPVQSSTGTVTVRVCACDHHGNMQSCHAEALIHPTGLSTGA

[2] = target: monkey CDH6 protein (cynoCDH6 ECD-his) (monkey (cyno)); assay: ELISA, antigen coated
[3] = target: T1, his-tagged human CDH6 extracellular region protein (hCDH6 ECD-his) (human); assay: SPR Biacore

B1: CHI-CDH6-1 (antibody, human IgG1, kappa, V domains shown)
VH: QVQLQQPGAELVRPGSSVKLSCKASGYTFTNYWMHWVKQRPIEGLEWIGDIDPSHSETHYTQKFKDKATLTVDKSSSTAYMQLSSLTSEDSAVYYCARGDLGRFDYWGQGTTLTVSS
VL: DIVLTQSPASLAVSLGQRATISCRASESVSIHGTHLMHWYQQKSGQPPKLLIYAASNLESGVPARFSGSGSETDFTFNIHPVEEEDAATYFCQQSFEDPWTFGGGTKLEIKR
In the case of B1, the binding [1] is reported as “binds” and the binding [2] is reported as “binds”.

B2: CHI-CDH6-2 (antibody, human IgG1, kappa, V domains shown)
VH: EVQLQQSGPELVKPGASVRISCKASGYTFTDYYMNWVKQSHGKSLEWIGDIDPNNANTTYNQKFKGKATLTVDKSSSTAYMELRSLTSEDSAVYSCASFGYDVEWFGYWGQGTLVTVSA
VL: QIVLTQSPALMSASPGEKVTMTCSASSSVSYMYWYQQKPRSSPKPWIYLTSNLASGVPARFSGSGSGTSYSLTISSMEAEDAATYYCQQWSSNPFTFGSGTKLEIKR
With B2 the binding [1] was “binds” and the binding [2] was “binds”.

B3: CHI-CDH6-6 (antibody, human IgG1, kappa, V domains shown)
VH: EVQLQQSGPELVKPGDSVKMSCKASGYTFTDYYMAWVRQSHRKSLEWIGYIFPNSGGTDYSQKFKGKATLTVDKSSSTVYMELHSLTSEDSAVYYCARELGADYGDYYAMDHWGQGTSVSVSS
VL: DIQMTQSPASLSASVGETVTITCRASENIDSYLAWYQQKQGKSPQLLVYSATLLADGVPSRFSGSGSGTQYSLKINSLKSEDVARYYCQHYYRTPPTFGSGTKLEIKR
For B3, the binding [1] was “binds” and the binding [2] was “binds”.

B4: CHI-CDH6-7 (antibody, human IgG1, kappa, V domains shown)
VH: EVKLVESGGGLVKPGGSLKVSCAASGFTFSDHGMAWVRQAPGKGPEWVAFISNLAYSIYYADTVTGRFTISRENAKNTLYLEMSSLRSEDTAMYYCARVYVKWYFDVWGAGTTVTVSS
VL: DIQMTQSPASLSASVGETVTITCRASENIDSYLAWYQQKQGKSPQLLVFAATLLADGVPSRFSGSGSGTQYSLKINSLQSEDVARYYCQHYYSTPLTFGAGTKLELKR
In the case of B4, the binding [2] is reported as “binds”.

B5: CHI-CDH6-8 (antibody, human IgG1, kappa, V domains shown)
VH: EVQLQQSGPELVKPGDSVKMSCKASGYTFTDYYMAWIKQNHGKSLEWIGYIYPNNGGTDYNQKFRGKATLTVDKSSSAAYMELHSLTSEDSAVYYCAREIGTLYGDYYAMDYWGQGTSVTVSS
VL: DIQMTQSPASLSASVGETVTITCRASENIDSYLAWYQQKQGKSPQLLVYTATLLADGVPSRFSGSGSGTQYSLKINSLQSEDVARYYCQHYYSTPPTFGSGTKLEIKR
In the case of B5, the binding [1] is reported as “binds” and the binding [2] is reported as “binds”.

B6: CHI-CDH6-9 (antibody, human IgG1, kappa, V domains shown)
VH: QVQLQQPGAELVKPGASVKLSCKASGYTFTGYWMHWVRQRPGQGLEWIGEINPNNGGTNCNEQFKNKATLTVDKSSSTAYMQLSSLTSEDSAVFYCTISFGNYLFFDVWGAGTTVTVSS
VL: DIQMTQSPASLAASVGETITITCQASENIYFSLAWYQQKQGKSPQLLIYNANTLEDGVPSRFVGSGSGTQYSMKINSIQPEDTATYFCDQTYDFPWTFGGGTKLEIKR
With B6 the binding [1] was “binds” and the binding [2] was “binds”.

B7: CHI-CDH6-10 (antibody, human IgG1, kappa, V domains shown)
VH: QVQLQQPGAELVKPGTSVKMSCKASGYTFTSDWIAWVKQRPGQGLEWIGDIYPGSGRTHNNEKFNFKATLTVDTSSNTAYMQLSSLTSEDSAVYFCARPMLGRFDYWGQGTTLTVSS
VL: DIVLTQSPASLAVSLGQRATISCRASESVSIHGTHLMHWYQQKPGQPPKLLIYAASNLESGVPARFSGSGSETDFTLNIHPVEEEDAATYFCQQSFEDPFTFGSGTKLEIKR
B7 was tested, and the binding [1] was “binds” and the binding [2] was “binds”.

B8: CHI-CDH6-11 (antibody, human IgG1, kappa, V domains shown)
VH: QIQLQQSGPELVKPGASVRISCKASGYTFTDYYITWVKLRPGQGLEWIGWIYPGSVNIKYNEKFKGKATLTVDTSSSTAYMQLNSLTSEDSAVYFCARGGYSWFPYWGQGTLVTVSA
VL: NIVMTQSPKSMSMSVGERVTLSCKASENVHTYVSWYQQKPEQSPKLLFYGASTRNTGVPDRFTGSGSATDFTLTISSVQAEDLADYYCGQSYSYPYTFGSGTKLEIKR
With B8 the binding [1] was “binds” and the binding [2] was “binds”.

B9: CHI-CDH6-12 (antibody, human IgG1, kappa, V domains shown)
VH: EVNLVESGGGLVQPGDSLTLSCSASGFTFTDYYMSWVRQFPGKALEWLALIRNKANSYTTEYSASVKGRFTISRDNSQSILYLQMNALRAEDSATYYCARDSYYSHDGFAYWGQGTLVTVSA
VL: DIVLTQSPASLAVSLGQRATISCRASKSVSTSSYTYMHWYQQKPGQPPKLLIKFASYLESGVPARFSGSGSGTDFTLNIHPVEEEDAATYYCQHSREFPFTFGTGTKLEIKR
B9 was tested, and the binding [2] was “binds”.

B10: CHI-CDH6-13 (antibody, human IgG1, kappa, V domains shown)
VH: DVQLQESGPGLVKPSQSLSLTCSVTGYSITKDSYWNWIRQFPGSKLEWMGFISYDGSRHYNPSLKNRISITRDTSKNQFFLQLNSVTTEDTATYYCARRDYADYWGQGTTLTVSS
VL: QIVLTQSPALMSAFPGEKVTMTCSATSSVSYIYWYQQKPRSSPKPWIYLTSNLASGVPARFSGSGSGTSYSLTINSLEAEDAATYYCQQWSSIPYTFGGGTKLEIKR
In the case of B10, the binding [1] is reported as “binds” and the binding [2] is reported as “binds”.

B11: CHI-CDH6-14 (antibody, human IgG1, kappa, V domains shown)
VH: QIQLQQSGPELVKPGTSVKISCKASGYTFTDNYINWVRQRPGQGLEWIGWIYPGTGNSYYNEKFKGKATLTVDTSSSTAYMQFSSLTSEDSAVYLCASSYGDSFDYWGQGTTLTVSS
VL: DIQMTQTTSSLSASLGNRVTISCRASQDIRNYLNWYQQKPDGTFKLLISYTSRLHSGVPSRFSGSGSGTDYSLTVSNLEPEDIATYYCQQYSQLPWTFGGGSRLEIKR
notes: also called CHI- hCDH6-14
With B11 the binding [2] was “binds”.

B12: hCDH6-1-H1L1 (antibody, human IgG1, kappa, V domains shown)
VH: EVQLVQSGAEVKKPGSSVKVSCKASGYTFSNYWMHWVRQAPGQGLEWMGDIDPSHSETHYTQKFKDRVTITVDKSTSTAYMELSSLRSEDTAVYYCARGDLGRFDYWGQGTTVTVSS
VL: DIVMTQSPDSLAVSLGERATINCRASESVSIHGTHLMHWYQQKPGQPPKLLIYAASNLESGVPDRFSGSGSETDFTLTISSLQAEDVAVYYCQQSFEDPWTFGGGTKVEIKR
For B12, the binding [3] was “binds” and the binding [1] was “binds”.

B13: hCDH6-1-H1L2 (antibody, human IgG1, kappa, V domains shown)
VH: EVQLVQSGAEVKKPGSSVKVSCKASGYTFSNYWMHWVRQAPGQGLEWMGDIDPSHSETHYTQKFKDRVTITVDKSTSTAYMELSSLRSEDTAVYYCARGDLGRFDYWGQGTTVTVSS
VL: DIVMTQSPDSLAVSLGERATINCRASESVSIHGTHLMHWYQQKSGQPPKLLIYAASNLESGVPDRFSGSGSETDFTLTISSLQAEDVAVYYCQQSFEDPWTFGGGTKVEIKR
In the case of B13, the binding [3] is reported as “binds” and the binding [1] is reported as “binds”.

B14: hCDH6-1-H1L3 (antibody, human IgG1, kappa, V domains shown)
VH: EVQLVQSGAEVKKPGSSVKVSCKASGYTFSNYWMHWVRQAPGQGLEWMGDIDPSHSETHYTQKFKDRVTITVDKSTSTAYMELSSLRSEDTAVYYCARGDLGRFDYWGQGTTVTVSS
VL: DIQMTQSPSSLSASVGDRVTITCRASESVSIHGTHLMHWYQQKPGKPPKLLIYAASNLESGVPSRFSGSGSETDFTFTISSLQPEDIATYYCQQSFEDPWTFGGGTKVEIKR
For B14, the binding [3] was “binds” and the binding [1] was “binds”.

B15: hCDH6-1-H2L3 (antibody, human IgG1, kappa, V domains shown)
VH: EVQLVQSGAEVKKPGSSVKVSCKASGYTFTNYWMHWVRQAPGQGLEWMGDIDPSHSETHYTQKFKDRVTITVDKSTSTAYMELSSLRSEDTAVYYCARGDLGRFDYWGQGTTVTVSS
VL: DIQMTQSPSSLSASVGDRVTITCRASESVSIHGTHLMHWYQQKPGKPPKLLIYAASNLESGVPSRFSGSGSETDFTFTISSLQPEDIATYYCQQSFEDPWTFGGGTKVEIKR
For B15, the binding [3] was “binds” and the binding [1] was “binds”.

B16: hCDH6-6-H1L1 (antibody, human IgG1, kappa, V domains shown)
VH: EVQLVQSGAEVKKPGASVKVSCKASGYTFTDYYMAWVRQAPGQGLEWMGYIFPNSGGTDYSQKFKGRVTMTVDKSTSTVYMELSSLRSEDTAVYYCARELGADYGDYYAMDHWGQGTTVTVSS
VL: DIQMTQSPSSLSASVGDRVTITCRASENIDSYLAWYQQKPGKSPKLLLYSATLLADGVPSRFSGSGSGTDYTLTISSLQPEDFATYYCQHYYRTPPTFGQGTKLEIKR
B16 was tested, and the binding [3] was “binds” and the binding [1] was “binds”.

B17: hCDH6-6-H1L2 (antibody, human IgG1, kappa, V domains shown)
VH: EVQLVQSGAEVKKPGASVKVSCKASGYTFTDYYMAWVRQAPGQGLEWMGYIFPNSGGTDYSQKFKGRVTMTVDKSTSTVYMELSSLRSEDTAVYYCARELGADYGDYYAMDHWGQGTTVTVSS
VL: DIQMTQSPSSLSASVGDRVTITCRASENIDSYLAWYQQKPGKSPKLLVYSATLLADGVPSRFSGSGSGTDYTLTISSLQPEDFATYYCQHYYRTPPTFGQGTKLEIKR
B17 was tested, and the binding [3] was “binds” and the binding [1] was “binds”.

B18: hCDH6-6-H2L1 (antibody, human IgG1, kappa, V domains shown)
VH: EVQLVQSGAEVKKPGASVKVSCKASGYTFTDYYMAWVRQAPGQGLEWMGYIFPNSGGTDYSQKFKGRVTLTVDKSTSTVYMELSSLRSEDTAVYYCARELGADYGDYYAMDHWGQGTTVTVSS
VL: DIQMTQSPSSLSASVGDRVTITCRASENIDSYLAWYQQKPGKSPKLLLYSATLLADGVPSRFSGSGSGTDYTLTISSLQPEDFATYYCQHYYRTPPTFGQGTKLEIKR
With B18 the binding [3] was “binds” and the binding [1] was “binds”.

B19: hCDH6-6-H2L2 (antibody, human IgG1, kappa, V domains shown)
VH: EVQLVQSGAEVKKPGASVKVSCKASGYTFTDYYMAWVRQAPGQGLEWMGYIFPNSGGTDYSQKFKGRVTLTVDKSTSTVYMELSSLRSEDTAVYYCARELGADYGDYYAMDHWGQGTTVTVSS
VL: DIQMTQSPSSLSASVGDRVTITCRASENIDSYLAWYQQKPGKSPKLLVYSATLLADGVPSRFSGSGSGTDYTLTISSLQPEDFATYYCQHYYRTPPTFGQGTKLEIKR
In the case of B19, the binding [3] is reported as “binds” and the binding [1] is reported as “binds”.
